## Melanoma cell counts after drug treatment

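Human melanoma cells were exposed to a pair of drugs for 72 h in 1,536-well plates and read by automated microscopy after fixing and staining. Values are the number of DAPI-stained nuclei as a percentage of the DMSO control: 100 is no effect, lower means fewer cells. Every drug was used at one fixed concentration, the higher of two screened. No replicate spread is given; individual values may be noisy.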
Only some of the drugs and lines screened are listed, without regard to their results.
A dash means that no value is listed here.

Drugs:
VX-702: NC(=O)c1ccc(N(C(N)=O)c2c(F)cccc2F)nc1-c1ccc(F)cc1F at 2 µM
palbociclib: CC(=O)c1c(C)c2cnc(Nc3ccc(N4CCNCC4)cn3)nc2n(C2CCCC2)c1=O at 0.2 µM
dovitinib: CN1CCN(c2ccc3nc(-c4c(N)c5c(F)cccc5[nH]c4=O)[nH]c3c2)CC1 at 0.5 µM
midostaurin: CO[C@@H]1[C@H](N(C)C(=O)c2ccccc2)C[C@H]2O[C@]1(C)n1c3ccccc3c3c4c(c5c6ccccc6n2c5c31)C(=O)NC4 at 0.4 µM
SNS-032: CC(C)(C)c1cnc(CSc2cnc(NC(=O)C3CCNCC3)s2)o1 at 0.05 µM
U73122: COc1ccc2c(c1)CCC1C2CCC2(C)C(NCCCCCCN3C(=O)C=CC3=O)CCC12 (stereo not given) at 2 µM
nilotinib: Cc1cn(-c2cc(NC(=O)c3ccc(C)c(Nc4nccc(-c5cccnc5)n4)c3)cc(C(F)(F)F)c2)cn1 at 1 µM
veliparib: C[C@]1(c2nc3c(C(N)=O)cccc3[nH]2)CCCN1 at 7 µM
ENMD-2076: Cc1cc(Nc2cc(N3CCN(C)CC3)nc(/C=C/c3ccccc3)n2)n[nH]1 at 0.2 µM
OSU-03012: NCC(=O)Nc1ccc(-n2nc(C(F)(F)F)cc2-c2ccc3c(ccc4ccccc43)c2)cc1 at 5 µM
ZM336372: Cc1ccc(NC(=O)c2cccc(N(C)C)c2)cc1NC(=O)c1ccc(O)cc1 at 10 µM
bexarotene: C=C(c1ccc(C(=O)O)cc1)c1cc2c(cc1C)C(C)(C)CCC2(C)C at 10 µM
NVP-BEZ235: Cn1c(=O)n(-c2ccc(C(C)(C)C#N)cc2)c2c3cc(-c4cnc5ccccc5c4)ccc3ncc21 at 0.02 µM
YM155: COCC[n+]1c2c(n(Cc3cnccn3)c1C)C(=O)c1ccccc1C2=O at 0.002 µM
RKI-983: C[C@@H](N)c1ccc(C(=O)Nc2ccnc3[nH]ccc23)cc1 at 2 µM
STA-4783: CN(NC(=O)CC(=O)NN(C)C(=S)c1ccccc1)C(=S)c1ccccc1 at 0.03 µM
GW441756: Cn1cc(/C=C2\C(=O)Nc3cccnc32)c2ccccc21 at 2 µM

Pair	A101D	WM451Lu	A2058	COLO 829
NVP-BEZ235 + SNS-032	-	75.1	-	-
midostaurin + ENMD-2076	-	92.0	-	70.4
RKI-983 + bexarotene	69.3	59.4	60.2	89.2
VX-702 + RKI-983	-	81.1	-	-
NVP-BEZ235 + dovitinib	-	96.5	-	-
midostaurin + OSU-03012	-	41.0	-	53.8
YM155 + RKI-983	-	29.9	-	-
GW441756 + NVP-BEZ235	-	101	-	-
ZM336372 + VX-702	-	77.4	-	-
RKI-983 + dovitinib	-	75.3	-	-
OSU-03012 + ZM336372	-	76.3	-	47.4
palbociclib + U73122	-	87.5	-	-
STA-4783 + veliparib	-	74.4	-	41.2
NVP-BEZ235 + STA-4783	-	93.9	-	-
nilotinib + GW441756	-	94.6	-	115
STA-4783 + SNS-032	-	51.9	-	-
OSU-03012 + RKI-983	85.1	-	64.2	72.7
NVP-BEZ235 + veliparib	-	69.0	-	-
RKI-983 + veliparib	80.2	76.5	57.6	93.9
dovitinib + ENMD-2076	-	98.6	-	-
NVP-BEZ235 + U73122	-	90.0	-	-
veliparib + bexarotene	-	85.2	-	60.1
YM155 + palbociclib	-	26.8	-	60.2
palbociclib + veliparib	-	64.7	-	78.9
ZM336372 + nilotinib	-	112	-	117
U73122 + ZM336372	-	86.0	-	-

Some entries from above, unchanged:

Pair,A101D,WM451Lu,A2058,COLO 829
palbociclib + U73122,-,87.5,-,-
midostaurin + OSU-03012,-,41.0,-,53.8
OSU-03012 + ZM336372,-,76.3,-,47.4

Data from the primary screen of doi:10.1371/journal.pone.0140310, rounded.